The test system of one series is MERS-CoV. To be noted: BHK-21; read-out: Reports MERS (Vero-6, Calu-3 or BHK21) IC50; cited from earlier work.
In series [1] the test system is SARS-CoV-2. The following applies: printed as CI = IC50/CC50; Caco-2 toxicity versus SARS-CoV-2 anti-cytopathic effect.
Series [2] deals with SARS-CoV-2. In words: microbe, parasite or virus in culture. The following applies: Severe acute respiratory syndrome coronavirus 2, Caco-2, 48 h, read-out: Results SARS-CoV-2 (Caco-2) IC50.

A value given as a limit tells only on which side of the number the result lay.

Take `CCCCCCCCCCCCCCCC[n+]1ccccc1` [cetylpyridinium]: the IC50 with MERS-CoV is 690 nM. The “CI (cytotoxicity index)” value in the series with SARS-CoV-2 [1] is on record as less than 3.

`Clc1ccc(CSC(Cn2ccnc2)c2ccc(Cl)cc2Cl)cc1` (stereo not drawn) [sulconazole]: the IC50 in the series with SARS-CoV-2 [2] was not below 20000 nM.

The values are drawn from PMC7910569 (Scientific Data, 2021).
